Here are results for two substances from publication PMC3765969.

The chains behind the UniProt entries cited, without tags or fusion partners.
UniProt P12004: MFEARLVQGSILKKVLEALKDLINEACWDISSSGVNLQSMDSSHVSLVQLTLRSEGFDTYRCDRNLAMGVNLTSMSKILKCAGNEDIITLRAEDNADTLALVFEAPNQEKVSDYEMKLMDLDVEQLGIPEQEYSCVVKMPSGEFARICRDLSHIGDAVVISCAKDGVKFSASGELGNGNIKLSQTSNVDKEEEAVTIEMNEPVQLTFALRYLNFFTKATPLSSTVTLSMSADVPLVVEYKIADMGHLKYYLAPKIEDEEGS
UniProt Q13547: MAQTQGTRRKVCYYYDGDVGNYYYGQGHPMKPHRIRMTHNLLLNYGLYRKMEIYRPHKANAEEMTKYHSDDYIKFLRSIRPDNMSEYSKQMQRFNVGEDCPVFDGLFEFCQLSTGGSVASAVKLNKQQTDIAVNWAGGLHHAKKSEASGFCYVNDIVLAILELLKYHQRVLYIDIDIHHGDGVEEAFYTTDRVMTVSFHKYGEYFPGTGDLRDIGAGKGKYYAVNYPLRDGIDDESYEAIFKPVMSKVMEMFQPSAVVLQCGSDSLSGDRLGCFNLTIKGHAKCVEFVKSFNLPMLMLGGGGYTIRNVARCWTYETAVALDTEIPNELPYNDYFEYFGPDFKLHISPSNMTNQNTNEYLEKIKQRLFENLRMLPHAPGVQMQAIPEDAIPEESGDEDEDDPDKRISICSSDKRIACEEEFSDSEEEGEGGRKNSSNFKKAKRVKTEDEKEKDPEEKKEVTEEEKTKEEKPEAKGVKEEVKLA
UniProt Q92769: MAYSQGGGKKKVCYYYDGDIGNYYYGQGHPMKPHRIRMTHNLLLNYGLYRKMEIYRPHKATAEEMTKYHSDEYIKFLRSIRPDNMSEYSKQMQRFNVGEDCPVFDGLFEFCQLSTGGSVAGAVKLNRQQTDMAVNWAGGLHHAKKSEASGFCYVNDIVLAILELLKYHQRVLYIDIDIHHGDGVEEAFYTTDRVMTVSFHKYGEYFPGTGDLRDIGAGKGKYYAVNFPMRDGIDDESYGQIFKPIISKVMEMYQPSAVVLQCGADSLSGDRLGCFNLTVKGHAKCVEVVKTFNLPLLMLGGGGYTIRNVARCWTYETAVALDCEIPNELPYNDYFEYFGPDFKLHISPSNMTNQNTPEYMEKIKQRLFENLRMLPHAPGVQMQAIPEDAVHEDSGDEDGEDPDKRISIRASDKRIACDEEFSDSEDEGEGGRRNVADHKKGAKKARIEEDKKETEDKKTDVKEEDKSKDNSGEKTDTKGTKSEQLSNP

The assay deals with proliferating cell nuclear antigen (human (endogenous in HeLa)) (UniProt P12004). The assay can be described thus: co-IP; HeLa nuclear extract in RIPA buffer with protease inhibitors, precleared with Protein A-agarose; anti-PCNA antibody 12 h at 4°C (IgG as negative control), Protein A-agarose 1 h at 4°C, three washes with RIPA buffer; western blot for Hdac1 and Hdac2. A general note: A western blot detects proteins with antibodies after separation by electrophoresis.

No constants are given. Whether binding was seen depends on the method and setting. Binding seen in cells or lysates may run through a third protein. Some entries that bind do so weakly or less than the wild type.

Consider “histone deacetylase 1 (from UniProt Q13547 1-482) (enzyme)”, for which the binding result is on record as “binds”.

On to “histone deacetylase 2 (from UniProt Q92769 1-488) (enzyme)”, for which the binding result was “binds”.
